Data reported in publication PMC9674349.

Protein sequences, listed by entry. Tags and fused reporters are not part of them.
UniProt Q9CXS4: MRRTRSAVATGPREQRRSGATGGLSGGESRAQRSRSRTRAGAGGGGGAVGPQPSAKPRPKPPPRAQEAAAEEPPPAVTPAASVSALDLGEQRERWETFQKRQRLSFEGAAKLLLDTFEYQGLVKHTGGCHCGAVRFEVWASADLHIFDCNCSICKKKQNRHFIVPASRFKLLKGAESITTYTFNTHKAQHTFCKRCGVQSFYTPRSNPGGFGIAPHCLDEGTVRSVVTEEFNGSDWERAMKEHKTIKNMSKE
UniProt Q62167: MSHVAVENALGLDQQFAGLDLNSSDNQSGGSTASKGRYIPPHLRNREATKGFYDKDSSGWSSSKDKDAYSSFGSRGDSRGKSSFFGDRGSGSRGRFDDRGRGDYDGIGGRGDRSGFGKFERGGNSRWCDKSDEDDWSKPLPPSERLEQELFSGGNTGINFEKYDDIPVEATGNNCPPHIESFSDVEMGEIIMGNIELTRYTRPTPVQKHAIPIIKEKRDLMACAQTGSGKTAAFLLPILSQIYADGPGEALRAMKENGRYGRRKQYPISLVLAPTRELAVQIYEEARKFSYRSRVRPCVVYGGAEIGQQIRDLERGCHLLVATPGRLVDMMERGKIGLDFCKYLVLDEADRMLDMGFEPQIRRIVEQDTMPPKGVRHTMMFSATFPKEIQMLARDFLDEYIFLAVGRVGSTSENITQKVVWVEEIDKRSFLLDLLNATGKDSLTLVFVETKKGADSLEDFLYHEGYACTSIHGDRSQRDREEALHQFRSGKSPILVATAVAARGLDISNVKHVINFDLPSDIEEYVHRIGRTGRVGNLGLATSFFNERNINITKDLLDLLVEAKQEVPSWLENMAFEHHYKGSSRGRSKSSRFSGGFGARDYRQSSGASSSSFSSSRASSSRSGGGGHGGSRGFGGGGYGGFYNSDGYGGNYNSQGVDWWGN
UniProt P63085: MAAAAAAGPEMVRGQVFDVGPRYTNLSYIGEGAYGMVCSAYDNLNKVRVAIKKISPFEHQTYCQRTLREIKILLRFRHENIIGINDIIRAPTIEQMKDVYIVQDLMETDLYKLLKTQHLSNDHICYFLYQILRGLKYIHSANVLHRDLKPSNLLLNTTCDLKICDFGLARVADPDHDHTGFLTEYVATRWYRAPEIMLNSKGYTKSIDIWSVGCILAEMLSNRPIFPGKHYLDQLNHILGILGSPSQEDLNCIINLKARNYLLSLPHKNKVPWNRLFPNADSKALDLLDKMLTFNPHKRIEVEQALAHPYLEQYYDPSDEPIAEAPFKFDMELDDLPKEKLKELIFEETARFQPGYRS
UniProt P29341: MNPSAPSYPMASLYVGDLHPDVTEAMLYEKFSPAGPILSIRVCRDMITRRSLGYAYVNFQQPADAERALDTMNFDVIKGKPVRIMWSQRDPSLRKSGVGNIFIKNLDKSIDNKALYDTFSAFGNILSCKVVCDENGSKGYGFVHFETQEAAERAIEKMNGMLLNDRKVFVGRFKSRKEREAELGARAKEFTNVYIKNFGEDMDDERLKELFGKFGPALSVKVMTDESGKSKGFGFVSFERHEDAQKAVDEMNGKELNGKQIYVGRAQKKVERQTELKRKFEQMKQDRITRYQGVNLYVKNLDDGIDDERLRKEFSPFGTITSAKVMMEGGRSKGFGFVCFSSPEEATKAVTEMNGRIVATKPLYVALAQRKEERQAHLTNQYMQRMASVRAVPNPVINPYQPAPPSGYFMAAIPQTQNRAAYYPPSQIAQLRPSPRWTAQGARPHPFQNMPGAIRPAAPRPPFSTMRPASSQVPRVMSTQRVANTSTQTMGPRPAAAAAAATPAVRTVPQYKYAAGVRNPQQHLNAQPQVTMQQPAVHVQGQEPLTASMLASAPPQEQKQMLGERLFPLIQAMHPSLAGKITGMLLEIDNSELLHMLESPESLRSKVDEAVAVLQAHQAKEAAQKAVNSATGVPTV
UniProt P11798: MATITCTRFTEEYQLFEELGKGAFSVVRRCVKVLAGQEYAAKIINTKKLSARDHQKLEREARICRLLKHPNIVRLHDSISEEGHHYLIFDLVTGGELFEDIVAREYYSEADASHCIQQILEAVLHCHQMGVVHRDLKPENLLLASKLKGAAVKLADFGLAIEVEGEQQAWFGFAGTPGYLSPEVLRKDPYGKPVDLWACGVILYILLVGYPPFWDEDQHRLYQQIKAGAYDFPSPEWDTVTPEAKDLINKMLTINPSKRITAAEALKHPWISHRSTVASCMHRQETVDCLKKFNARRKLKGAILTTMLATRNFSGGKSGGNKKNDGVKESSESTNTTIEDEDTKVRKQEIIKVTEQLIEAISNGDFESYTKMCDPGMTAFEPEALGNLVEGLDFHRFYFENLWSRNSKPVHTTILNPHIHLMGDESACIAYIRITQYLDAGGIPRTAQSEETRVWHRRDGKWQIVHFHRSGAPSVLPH
UniProt Q80YA9: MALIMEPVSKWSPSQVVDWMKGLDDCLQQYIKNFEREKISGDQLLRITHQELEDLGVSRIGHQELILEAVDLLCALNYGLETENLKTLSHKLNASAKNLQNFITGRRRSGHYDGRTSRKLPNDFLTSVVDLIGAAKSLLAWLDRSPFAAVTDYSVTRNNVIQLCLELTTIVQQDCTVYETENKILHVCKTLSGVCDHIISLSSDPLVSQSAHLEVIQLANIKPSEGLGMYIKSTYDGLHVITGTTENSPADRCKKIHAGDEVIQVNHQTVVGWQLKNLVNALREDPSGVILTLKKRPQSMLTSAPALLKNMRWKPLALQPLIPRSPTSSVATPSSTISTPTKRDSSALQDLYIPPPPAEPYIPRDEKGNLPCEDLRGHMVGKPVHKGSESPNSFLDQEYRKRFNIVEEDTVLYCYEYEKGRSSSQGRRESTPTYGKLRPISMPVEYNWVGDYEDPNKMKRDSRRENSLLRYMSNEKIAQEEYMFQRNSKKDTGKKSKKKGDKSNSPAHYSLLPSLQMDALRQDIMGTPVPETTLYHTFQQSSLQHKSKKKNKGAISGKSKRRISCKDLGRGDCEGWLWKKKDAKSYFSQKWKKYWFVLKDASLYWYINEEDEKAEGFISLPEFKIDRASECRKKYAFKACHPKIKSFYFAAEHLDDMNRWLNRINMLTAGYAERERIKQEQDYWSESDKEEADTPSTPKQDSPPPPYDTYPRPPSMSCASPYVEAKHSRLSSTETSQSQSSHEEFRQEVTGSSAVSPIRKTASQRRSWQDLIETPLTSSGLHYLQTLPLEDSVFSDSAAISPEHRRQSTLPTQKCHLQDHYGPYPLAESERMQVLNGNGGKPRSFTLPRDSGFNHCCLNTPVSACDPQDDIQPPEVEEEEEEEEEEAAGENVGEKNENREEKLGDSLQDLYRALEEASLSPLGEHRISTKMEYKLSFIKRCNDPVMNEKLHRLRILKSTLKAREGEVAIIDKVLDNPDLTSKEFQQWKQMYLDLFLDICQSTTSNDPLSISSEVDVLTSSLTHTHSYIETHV
UniProt D3YXK2: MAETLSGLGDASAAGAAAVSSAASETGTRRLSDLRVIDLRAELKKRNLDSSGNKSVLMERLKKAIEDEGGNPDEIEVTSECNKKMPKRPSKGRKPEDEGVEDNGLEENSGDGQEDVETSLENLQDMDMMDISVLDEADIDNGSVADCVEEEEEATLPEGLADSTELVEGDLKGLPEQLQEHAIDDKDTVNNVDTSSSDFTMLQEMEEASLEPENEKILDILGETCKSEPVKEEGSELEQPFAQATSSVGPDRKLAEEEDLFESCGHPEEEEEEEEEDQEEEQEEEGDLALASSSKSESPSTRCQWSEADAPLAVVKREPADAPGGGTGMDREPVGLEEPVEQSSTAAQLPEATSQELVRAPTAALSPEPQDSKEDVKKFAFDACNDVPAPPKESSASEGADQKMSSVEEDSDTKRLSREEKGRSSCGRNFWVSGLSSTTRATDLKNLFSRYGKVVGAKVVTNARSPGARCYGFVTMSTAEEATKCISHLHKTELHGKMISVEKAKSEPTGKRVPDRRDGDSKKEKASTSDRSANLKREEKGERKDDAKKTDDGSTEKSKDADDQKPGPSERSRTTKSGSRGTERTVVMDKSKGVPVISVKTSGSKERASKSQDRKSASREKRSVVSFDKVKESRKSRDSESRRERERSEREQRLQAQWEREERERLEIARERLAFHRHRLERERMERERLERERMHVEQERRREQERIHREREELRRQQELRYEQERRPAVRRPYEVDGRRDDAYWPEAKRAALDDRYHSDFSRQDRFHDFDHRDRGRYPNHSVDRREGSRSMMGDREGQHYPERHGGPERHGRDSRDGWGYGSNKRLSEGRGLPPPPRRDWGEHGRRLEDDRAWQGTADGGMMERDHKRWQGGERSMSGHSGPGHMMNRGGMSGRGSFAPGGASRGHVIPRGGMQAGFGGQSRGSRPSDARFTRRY

biological target: T1, gephyrin, native, in mouse brain (mouse (endogenous in brain)) (UniProt Q8BUV3); experiment: affinity purification with mass spectrometry; native gephyrin complexes precipitated from mouse cortex and hippocampus lysate with DARPin-hFc 27B3, 27F3, 27G2 or antibody 3B11 on Protein G magnetic beads; LC-MS/MS; against control DARPin-hFc E3_5 or control IgG
T1 sequence: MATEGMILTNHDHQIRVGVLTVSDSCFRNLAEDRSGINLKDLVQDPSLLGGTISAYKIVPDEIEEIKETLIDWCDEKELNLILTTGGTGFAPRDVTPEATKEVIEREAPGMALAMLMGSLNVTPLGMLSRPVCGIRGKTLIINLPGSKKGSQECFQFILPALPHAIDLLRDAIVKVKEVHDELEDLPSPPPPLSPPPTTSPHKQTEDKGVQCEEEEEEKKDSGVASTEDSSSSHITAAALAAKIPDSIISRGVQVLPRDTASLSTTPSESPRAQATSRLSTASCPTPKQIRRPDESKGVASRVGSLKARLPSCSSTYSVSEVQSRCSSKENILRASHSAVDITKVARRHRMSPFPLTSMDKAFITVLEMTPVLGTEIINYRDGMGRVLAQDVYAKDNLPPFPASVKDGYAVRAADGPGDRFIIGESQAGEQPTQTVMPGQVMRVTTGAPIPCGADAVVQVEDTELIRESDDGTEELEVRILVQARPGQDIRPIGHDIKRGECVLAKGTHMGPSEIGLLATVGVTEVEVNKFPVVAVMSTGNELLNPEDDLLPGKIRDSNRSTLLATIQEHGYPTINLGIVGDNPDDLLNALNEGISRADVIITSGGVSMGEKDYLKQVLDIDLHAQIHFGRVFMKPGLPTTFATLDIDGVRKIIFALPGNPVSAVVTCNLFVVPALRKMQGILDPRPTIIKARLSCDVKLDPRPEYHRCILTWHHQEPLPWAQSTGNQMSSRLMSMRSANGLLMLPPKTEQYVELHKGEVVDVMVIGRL

Substance	binding
CENPV (from UniProt Q9CXS4 1-252)	binds
DDX3X (from UniProt Q62167 1-662)	binds
MK01 (ERK2) (from UniProt P63085 1-358) (enzyme)	binds
PABP1 (from UniProt P29341 1-636)	binds

Further lines, results first:

binding	Substance
binds	CAMKIIα (from UniProt P11798 1-478) (enzyme)
binds	CNKR2 (from UniProt Q80YA9 1-1032)
binds	SAFB1 (from UniProt D3YXK2 1-937)

Results are given in words; binding and its absence hold for the method and conditions named. In cells and extracts the contact can be indirect. Here binding means that the protein was enriched with, or labelled near, the bait; the list need not be complete.
